Source: publication PMC6156606
Read-outs that look alike come from different tables or passages of the source. These are yes or no findings as the source states them, for the method shown. Binding seen in cells or lysates may run through a third protein. Here binding means that the protein was enriched with, or labelled near, the bait; the list need not be complete. For part of these data: No binding means not detected with the bait. For part of these data: Sequences can lack the tags named with a protein. One block for each molecule: values may come before it.

Protein sequences, listed by entry. Tags and fused reporters are not part of them.
UniProt Q9UI95: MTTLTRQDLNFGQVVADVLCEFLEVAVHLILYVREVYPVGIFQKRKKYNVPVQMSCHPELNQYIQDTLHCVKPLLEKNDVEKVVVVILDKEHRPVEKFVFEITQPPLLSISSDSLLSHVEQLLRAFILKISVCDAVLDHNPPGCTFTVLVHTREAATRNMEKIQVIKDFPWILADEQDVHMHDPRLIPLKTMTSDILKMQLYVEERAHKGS
UniProt P49005: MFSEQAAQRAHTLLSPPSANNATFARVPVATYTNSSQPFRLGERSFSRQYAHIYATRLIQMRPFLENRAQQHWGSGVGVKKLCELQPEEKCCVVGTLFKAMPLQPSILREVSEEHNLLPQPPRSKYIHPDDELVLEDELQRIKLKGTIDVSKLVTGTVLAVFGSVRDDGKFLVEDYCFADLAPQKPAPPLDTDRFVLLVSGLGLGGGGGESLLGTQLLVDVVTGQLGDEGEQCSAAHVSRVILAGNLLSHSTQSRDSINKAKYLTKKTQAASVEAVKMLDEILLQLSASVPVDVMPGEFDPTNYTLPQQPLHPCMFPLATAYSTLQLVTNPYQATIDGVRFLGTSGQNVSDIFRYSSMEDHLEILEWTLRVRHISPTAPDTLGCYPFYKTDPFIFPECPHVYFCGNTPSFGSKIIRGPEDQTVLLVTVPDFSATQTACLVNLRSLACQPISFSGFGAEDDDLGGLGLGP
UniProt O60673: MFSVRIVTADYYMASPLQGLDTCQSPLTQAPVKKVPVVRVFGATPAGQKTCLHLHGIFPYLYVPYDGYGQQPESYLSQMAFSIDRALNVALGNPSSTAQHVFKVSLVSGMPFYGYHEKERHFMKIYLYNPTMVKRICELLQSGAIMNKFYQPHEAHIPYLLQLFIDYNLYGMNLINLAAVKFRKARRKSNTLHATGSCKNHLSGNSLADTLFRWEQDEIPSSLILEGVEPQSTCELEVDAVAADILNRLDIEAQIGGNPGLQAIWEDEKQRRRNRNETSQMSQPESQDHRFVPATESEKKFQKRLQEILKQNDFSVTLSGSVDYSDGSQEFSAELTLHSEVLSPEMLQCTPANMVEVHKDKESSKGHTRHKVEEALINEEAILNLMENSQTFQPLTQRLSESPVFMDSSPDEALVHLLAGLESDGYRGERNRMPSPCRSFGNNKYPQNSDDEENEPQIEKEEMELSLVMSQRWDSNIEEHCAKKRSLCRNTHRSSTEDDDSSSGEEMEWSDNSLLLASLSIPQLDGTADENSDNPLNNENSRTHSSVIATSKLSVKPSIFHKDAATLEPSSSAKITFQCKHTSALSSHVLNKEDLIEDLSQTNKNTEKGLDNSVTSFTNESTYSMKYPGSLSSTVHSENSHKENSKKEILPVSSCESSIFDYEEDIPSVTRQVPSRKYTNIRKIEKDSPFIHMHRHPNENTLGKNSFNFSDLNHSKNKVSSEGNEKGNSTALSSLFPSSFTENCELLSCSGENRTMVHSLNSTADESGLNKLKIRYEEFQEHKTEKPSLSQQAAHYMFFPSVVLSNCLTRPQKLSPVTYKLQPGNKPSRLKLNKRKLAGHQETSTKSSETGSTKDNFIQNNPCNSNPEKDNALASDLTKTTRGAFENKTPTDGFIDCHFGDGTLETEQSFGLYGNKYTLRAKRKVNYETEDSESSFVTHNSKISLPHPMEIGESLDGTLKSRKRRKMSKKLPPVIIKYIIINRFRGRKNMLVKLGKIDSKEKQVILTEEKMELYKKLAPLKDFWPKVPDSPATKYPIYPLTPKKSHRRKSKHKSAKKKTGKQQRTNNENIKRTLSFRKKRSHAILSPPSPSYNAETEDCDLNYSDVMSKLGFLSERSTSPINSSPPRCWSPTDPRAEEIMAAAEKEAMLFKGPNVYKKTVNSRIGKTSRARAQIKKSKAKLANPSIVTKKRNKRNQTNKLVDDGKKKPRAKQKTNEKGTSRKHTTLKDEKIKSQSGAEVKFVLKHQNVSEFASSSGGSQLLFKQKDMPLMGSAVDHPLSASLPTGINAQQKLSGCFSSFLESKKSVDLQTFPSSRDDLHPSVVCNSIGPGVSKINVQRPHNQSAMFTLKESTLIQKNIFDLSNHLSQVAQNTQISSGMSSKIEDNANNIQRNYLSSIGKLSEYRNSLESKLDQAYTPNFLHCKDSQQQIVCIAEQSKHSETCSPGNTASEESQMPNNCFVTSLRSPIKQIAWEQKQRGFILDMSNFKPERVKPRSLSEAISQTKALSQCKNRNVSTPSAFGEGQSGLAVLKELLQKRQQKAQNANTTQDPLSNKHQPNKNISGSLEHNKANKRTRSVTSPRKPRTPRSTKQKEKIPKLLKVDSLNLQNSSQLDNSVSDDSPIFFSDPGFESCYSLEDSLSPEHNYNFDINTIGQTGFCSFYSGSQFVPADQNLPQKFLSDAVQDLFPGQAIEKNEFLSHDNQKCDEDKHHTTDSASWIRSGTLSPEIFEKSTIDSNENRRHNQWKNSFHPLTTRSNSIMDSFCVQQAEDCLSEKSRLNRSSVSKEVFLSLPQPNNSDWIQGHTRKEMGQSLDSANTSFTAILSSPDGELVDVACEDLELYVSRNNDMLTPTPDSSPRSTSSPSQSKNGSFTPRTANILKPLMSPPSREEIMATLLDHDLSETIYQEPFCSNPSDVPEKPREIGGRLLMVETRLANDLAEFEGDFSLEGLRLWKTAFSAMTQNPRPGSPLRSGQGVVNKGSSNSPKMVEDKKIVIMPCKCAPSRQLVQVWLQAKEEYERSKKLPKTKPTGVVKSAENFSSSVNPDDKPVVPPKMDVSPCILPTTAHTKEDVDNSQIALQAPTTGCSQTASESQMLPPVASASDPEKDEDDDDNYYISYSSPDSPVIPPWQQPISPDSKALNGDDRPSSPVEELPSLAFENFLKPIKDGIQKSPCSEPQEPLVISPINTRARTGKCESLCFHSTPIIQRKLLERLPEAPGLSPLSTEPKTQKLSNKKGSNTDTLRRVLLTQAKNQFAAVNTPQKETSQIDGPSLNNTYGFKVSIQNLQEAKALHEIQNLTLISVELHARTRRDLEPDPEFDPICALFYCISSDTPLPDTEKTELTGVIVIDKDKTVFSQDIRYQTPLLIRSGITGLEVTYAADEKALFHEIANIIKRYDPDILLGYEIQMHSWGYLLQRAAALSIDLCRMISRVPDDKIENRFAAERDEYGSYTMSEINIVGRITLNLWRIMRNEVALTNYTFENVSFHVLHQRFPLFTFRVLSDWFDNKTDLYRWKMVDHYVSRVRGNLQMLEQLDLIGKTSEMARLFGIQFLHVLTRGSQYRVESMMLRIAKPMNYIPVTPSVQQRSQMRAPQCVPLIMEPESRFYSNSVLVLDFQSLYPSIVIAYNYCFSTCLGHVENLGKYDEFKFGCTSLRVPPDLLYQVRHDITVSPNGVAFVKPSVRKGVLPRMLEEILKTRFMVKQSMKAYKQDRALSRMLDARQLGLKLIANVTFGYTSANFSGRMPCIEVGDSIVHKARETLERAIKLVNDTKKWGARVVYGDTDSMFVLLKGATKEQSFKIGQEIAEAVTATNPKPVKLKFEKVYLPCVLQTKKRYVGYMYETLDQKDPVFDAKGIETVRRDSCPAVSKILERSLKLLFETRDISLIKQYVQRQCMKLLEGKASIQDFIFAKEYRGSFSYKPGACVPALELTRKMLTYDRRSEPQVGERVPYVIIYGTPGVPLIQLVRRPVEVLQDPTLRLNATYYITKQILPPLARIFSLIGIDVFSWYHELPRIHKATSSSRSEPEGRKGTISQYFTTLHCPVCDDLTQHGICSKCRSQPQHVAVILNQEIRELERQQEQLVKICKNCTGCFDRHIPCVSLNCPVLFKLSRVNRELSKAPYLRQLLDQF
UniProt Q5UIP0: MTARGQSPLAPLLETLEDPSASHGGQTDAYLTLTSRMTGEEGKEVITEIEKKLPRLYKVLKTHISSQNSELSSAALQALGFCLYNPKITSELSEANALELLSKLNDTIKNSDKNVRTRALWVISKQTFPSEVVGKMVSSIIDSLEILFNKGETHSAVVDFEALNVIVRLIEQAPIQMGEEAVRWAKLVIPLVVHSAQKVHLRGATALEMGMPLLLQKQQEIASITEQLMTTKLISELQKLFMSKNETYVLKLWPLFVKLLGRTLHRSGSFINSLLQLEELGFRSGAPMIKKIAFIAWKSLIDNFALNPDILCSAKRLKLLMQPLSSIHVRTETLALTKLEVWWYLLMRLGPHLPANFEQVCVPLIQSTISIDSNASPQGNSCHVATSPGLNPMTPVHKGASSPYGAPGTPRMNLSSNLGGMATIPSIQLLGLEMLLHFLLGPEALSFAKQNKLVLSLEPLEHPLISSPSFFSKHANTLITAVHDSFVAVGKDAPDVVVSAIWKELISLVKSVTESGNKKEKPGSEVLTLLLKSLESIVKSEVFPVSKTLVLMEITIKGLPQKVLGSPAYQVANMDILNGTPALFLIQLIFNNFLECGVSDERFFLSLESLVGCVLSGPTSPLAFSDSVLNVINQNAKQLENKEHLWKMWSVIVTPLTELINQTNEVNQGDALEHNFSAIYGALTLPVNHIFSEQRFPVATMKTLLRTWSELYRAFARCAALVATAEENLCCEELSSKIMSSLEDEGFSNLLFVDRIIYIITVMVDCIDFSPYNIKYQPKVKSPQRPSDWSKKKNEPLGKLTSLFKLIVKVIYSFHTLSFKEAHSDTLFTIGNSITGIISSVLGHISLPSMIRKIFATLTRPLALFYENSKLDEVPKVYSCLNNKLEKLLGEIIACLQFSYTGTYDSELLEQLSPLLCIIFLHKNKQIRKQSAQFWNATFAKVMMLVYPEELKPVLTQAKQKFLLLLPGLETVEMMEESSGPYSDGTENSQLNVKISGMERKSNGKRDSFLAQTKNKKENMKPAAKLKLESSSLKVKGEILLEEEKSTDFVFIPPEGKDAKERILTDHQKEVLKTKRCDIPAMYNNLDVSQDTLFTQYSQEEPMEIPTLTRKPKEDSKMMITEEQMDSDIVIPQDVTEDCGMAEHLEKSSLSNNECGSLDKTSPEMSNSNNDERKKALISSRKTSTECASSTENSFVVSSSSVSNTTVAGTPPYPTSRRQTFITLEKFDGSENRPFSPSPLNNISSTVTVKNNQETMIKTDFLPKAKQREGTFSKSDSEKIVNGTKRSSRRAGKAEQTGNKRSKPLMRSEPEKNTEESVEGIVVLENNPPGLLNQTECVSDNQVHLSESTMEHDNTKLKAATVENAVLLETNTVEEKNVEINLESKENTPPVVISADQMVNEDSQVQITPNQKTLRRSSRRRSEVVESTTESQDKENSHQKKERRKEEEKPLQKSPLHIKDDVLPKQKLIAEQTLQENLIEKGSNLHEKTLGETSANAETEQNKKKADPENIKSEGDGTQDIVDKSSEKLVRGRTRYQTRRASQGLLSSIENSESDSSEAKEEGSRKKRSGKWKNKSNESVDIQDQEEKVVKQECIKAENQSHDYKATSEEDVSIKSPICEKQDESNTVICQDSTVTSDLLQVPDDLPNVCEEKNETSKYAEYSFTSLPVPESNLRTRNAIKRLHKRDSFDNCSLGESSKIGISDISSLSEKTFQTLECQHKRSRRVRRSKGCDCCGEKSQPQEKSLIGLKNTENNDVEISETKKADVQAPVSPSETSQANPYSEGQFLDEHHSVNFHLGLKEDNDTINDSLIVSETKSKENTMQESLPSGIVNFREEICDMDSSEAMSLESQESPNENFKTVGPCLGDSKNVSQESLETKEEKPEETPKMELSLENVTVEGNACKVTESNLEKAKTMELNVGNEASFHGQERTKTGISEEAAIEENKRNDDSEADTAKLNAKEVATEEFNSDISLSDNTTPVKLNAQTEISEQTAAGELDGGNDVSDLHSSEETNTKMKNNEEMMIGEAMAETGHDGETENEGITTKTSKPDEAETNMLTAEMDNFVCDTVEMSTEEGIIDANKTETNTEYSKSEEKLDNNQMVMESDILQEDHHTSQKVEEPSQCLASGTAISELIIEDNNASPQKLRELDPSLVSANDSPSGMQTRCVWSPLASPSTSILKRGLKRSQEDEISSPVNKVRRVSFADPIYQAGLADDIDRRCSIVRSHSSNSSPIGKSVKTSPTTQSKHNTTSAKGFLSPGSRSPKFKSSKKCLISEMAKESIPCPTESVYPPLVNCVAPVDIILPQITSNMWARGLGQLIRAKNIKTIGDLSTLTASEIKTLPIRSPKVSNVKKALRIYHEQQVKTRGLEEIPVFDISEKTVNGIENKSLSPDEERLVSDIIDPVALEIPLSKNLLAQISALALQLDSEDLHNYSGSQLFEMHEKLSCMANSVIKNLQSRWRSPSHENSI

Legend:
Assay in all cases: affinity purification with mass spectrometry; FLAG-tagged bait transiently expressed in HEK293 suspension cells; NTEN lysis (150 mM NaCl, 0.5% NP40, pH 7.5); anti-Flag M2 agarose 3–4 h at 4 °C; eluted with 3XFlag peptide; SDS-PAGE and mass spectrometry
[1] = target: FLAG-REV7 (human) (UniProt Q9UI95)
[2] = target: T1, FLAG-tagged FAM35A (human) (UniProt Q86V20)
T1 sequence: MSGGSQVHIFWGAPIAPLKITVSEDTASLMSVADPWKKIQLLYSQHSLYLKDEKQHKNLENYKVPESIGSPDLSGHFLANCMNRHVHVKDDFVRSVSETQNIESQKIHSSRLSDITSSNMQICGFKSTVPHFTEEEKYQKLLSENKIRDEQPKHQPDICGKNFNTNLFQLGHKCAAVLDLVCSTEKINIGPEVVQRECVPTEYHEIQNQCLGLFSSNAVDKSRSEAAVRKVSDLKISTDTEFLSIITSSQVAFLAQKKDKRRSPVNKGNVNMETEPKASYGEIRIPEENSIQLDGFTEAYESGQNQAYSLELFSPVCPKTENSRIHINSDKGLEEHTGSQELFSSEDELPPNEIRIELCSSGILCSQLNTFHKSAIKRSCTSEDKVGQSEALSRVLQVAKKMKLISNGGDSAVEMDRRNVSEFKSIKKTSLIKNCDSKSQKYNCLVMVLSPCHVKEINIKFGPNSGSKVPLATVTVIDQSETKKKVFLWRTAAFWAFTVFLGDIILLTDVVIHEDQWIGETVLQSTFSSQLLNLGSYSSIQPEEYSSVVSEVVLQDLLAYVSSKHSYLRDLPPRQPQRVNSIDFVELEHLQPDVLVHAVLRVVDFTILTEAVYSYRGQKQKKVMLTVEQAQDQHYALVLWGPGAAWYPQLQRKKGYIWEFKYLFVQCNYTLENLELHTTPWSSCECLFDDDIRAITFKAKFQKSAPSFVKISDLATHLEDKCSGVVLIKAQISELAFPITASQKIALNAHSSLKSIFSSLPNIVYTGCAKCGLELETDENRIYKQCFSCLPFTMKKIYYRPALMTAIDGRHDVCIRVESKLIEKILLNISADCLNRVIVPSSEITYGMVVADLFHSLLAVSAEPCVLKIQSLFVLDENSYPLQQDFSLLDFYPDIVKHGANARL

[3] = target: T2, FLAG-tagged C20ORF196 (human) (UniProt Q8IYI0)
T2 sequence: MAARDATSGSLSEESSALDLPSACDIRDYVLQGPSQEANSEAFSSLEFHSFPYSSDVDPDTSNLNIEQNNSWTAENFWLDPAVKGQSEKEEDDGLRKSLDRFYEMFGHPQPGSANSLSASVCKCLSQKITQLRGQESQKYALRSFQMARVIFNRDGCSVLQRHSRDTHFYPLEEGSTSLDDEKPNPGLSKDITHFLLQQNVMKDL

[4] = target: FLAG-REV7 (human) (UniProt Q9UI95); remark: listed apart in the source
[5] = target: T2, FLAG-tagged C20ORF196 (human); remark: listed apart in the source
[6] = target: T1, FLAG-tagged FAM35A (human); remark: listed apart in the source

- binding [1]: binds
- binding [2]: no binding
- binding [3]: no binding
Molecule: POLD2 (from UniProt P49005 1-469)

- binding [1]: binds
- binding [2]: no binding
- binding [3]: no binding
Molecule: REV3L (from UniProt O60673 1-3130)

- binding [2]: binds
- binding [3]: binds
Molecule: REV7 (from UniProt Q9UI95 1-211)

- binding [1]: binds
- binding [2]: binds
- binding [3]: binds
Molecule: RIF1 (from UniProt Q5UIP0 1-2472)

- binding [4]: binds
- binding [5]: binds
B1: FAM35A (protein, UniProt Q86V20-2 1-904)
chain: T1 sequence

- binding [4]: binds
- binding [6]: binds
B2: C20ORF196 (protein, UniProt Q8IYI0 1-205)
chain: T2 sequence

- binding [4]: binds
- binding [6]: no binding
- binding [5]: no binding
B3: POLD3 (protein, UniProt Q15054 1-466)
chain: MADQLYLENIDEFVTDQNKIVTYKWLSYTLGVHVNQAKQMLYDYVERKRKENSGAQLHVTYLVSGSLIQNGHSCHKVAVVREDKLEAVKSKLAVTASIHVYSIQKAMLKDSGPLFNTDYDILKSNLQNCSKFSAIQCAAAVPRAPAESSSSSKKFEQSHLHMSSETQANNELTTNGHGPPASKQVSQQPKGIMGMFASKAAAKTQETNKETKTEAKEVTNASAAGNKAPGKGNMMSNFFGKAAMNKFKVNLDSEQAVKEEKIVEQPTVSVTEPKLATPAGLKKSSKKAEPVKVLQKEKKRGKRVALSDDETKETENMRKKRRRIKLPESDSSEDEVFPDSPGAYEAESPSPPPPPSPPLEPVPKTEPEPPSVKSSSGENKRKRKRVLKSKTYLDGEGCIVTEKVYESESCTDSEEELNMKTSSVHRPPAMTVKKEPREERKGPKKGTAALGKANRQVSITGFFQRK
